From article PMC5608970 come the findings set out here.

Amino acid sequences for entries named in this document (tags omitted). A change or cut given only in a name is not applied to a line headed by its entry. Residues count along the entry.
UniProt Q13467, residues 27-585: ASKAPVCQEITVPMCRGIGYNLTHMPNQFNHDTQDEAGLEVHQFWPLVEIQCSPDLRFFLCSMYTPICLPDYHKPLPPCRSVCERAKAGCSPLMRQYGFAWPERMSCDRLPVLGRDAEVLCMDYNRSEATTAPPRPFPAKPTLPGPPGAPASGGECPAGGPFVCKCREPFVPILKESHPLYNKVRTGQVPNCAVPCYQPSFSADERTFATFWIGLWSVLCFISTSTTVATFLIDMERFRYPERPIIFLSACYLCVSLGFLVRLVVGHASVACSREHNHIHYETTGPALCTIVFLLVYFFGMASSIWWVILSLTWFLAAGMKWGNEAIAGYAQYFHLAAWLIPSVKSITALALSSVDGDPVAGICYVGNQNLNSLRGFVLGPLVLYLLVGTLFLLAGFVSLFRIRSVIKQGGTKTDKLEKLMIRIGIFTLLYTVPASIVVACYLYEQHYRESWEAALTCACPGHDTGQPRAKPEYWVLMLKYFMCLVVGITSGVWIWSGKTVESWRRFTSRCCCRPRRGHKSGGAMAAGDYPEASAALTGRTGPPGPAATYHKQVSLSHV
UniProt O95136: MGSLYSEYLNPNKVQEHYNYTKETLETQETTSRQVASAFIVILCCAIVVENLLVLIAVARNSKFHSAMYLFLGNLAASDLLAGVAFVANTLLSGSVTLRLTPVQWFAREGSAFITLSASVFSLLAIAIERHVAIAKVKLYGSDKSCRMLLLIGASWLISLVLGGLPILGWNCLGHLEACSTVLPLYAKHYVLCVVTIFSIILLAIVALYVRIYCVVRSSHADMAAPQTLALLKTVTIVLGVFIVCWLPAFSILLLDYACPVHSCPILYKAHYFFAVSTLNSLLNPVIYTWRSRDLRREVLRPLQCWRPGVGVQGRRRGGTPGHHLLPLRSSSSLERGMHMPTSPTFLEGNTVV
UniProt Q9H228: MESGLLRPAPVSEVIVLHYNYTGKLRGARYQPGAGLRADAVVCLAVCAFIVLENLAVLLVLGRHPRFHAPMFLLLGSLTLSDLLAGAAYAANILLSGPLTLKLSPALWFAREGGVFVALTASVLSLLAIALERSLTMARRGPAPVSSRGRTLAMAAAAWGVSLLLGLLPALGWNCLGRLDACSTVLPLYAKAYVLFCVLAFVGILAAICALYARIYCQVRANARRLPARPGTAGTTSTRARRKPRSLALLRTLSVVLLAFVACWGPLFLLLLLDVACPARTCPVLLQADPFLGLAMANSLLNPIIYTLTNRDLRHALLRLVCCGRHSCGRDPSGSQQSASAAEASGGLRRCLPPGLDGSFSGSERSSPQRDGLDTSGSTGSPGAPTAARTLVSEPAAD
UniProt Q9BXB1, residues 25-951: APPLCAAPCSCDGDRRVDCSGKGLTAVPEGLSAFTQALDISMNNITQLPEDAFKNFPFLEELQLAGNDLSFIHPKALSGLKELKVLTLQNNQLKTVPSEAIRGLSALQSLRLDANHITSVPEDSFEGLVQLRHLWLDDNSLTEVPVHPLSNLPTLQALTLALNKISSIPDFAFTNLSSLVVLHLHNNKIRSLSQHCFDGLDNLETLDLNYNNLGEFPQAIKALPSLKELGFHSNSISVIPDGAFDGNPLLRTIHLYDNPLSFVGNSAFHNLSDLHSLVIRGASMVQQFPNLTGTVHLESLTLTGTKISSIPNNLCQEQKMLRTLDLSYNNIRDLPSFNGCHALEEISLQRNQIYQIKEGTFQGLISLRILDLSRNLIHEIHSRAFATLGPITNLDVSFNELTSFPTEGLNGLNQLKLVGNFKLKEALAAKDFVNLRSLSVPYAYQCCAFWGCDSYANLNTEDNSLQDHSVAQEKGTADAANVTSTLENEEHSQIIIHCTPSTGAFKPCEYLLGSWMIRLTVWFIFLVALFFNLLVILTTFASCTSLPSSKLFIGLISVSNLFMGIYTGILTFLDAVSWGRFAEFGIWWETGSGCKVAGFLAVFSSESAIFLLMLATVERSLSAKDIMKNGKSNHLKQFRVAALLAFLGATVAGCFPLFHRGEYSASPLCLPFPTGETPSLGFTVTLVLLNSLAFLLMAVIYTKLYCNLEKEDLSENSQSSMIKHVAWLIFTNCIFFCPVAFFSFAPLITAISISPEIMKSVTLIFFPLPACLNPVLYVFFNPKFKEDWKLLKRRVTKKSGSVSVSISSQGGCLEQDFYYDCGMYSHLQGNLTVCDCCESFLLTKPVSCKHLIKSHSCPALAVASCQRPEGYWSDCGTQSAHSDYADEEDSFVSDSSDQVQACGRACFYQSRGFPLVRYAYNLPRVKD
UniProt P18825: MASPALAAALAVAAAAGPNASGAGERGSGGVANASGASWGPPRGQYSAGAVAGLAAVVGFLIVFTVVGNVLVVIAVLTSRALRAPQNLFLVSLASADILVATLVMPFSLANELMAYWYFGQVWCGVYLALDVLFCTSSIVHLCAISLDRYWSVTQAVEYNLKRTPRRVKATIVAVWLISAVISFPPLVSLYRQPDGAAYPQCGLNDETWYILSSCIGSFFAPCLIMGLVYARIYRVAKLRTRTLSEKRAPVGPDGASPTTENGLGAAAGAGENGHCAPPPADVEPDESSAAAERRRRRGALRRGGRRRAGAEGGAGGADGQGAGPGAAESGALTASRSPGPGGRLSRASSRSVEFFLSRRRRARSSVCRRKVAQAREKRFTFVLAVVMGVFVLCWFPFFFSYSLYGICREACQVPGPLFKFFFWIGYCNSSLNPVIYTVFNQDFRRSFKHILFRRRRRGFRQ

These are yes or no findings as the source states them, for the method shown. For some assays here: Binding seen in cells or lysates may run through a third protein. Some results given as binding are weak or reduced against the parent protein; the word gives no strength.

The target of assay [1] is FZD5 (human) (UniProt Q13467). The assay is described as follows: FRET or BRET; type-3 BRET: GFP2- and Rluc-tagged copies (12:1 pGFP2:pRluc) in HEK293T cells with untagged competitor or blank pU vector (2:1 pU:(pGFP2+pRluc)); p^diff tells whether BRETeff is affected by the competitor. For orientation: BRET reads energy transfer from a luciferase to a nearby fluorophore.
For assay [2], the target named is FZD5 (human) (UniProt Q13467). The assay is described as follows: FRET or BRET; type-1 BRET: GFP2- and Rluc-tagged copies of the receptor co-expressed in HEK293T cells, acceptor:donor ratio varied at constant expression; data fitted to monomer versus dimer models (R^2); read 24 hr (some 48 hr) post-transfection.
Assay [3] deals with S1P receptor S1P2 (human) (UniProt O95136). The assay is described as follows: FRET or BRET; type-3 BRET: GFP2- and Rluc-tagged copies (12:1 pGFP2:pRluc) in HEK293T cells with untagged competitor or blank pU vector (2:1 pU:(pGFP2+pRluc)); p^diff tells whether BRETeff is affected by the competitor.
The target is the same in assay [4]. The assay is described as follows: FRET or BRET; type-1 BRET: GFP2- and Rluc-tagged copies of the receptor co-expressed in HEK293T cells, acceptor:donor ratio varied at constant expression; data fitted to monomer versus dimer models (R^2); read 24 hr (some 48 hr) post-transfection.
The target of assay [5] is S1P receptor S1P5 (human) (UniProt Q9H228). The assay is described as follows: FRET or BRET; type-3 BRET: GFP2- and Rluc-tagged copies (12:1 pGFP2:pRluc) in HEK293T cells with untagged competitor or blank pU vector (2:1 pU:(pGFP2+pRluc)); p^diff tells whether BRETeff is affected by the competitor.
The target is the same in assay [6]. The assay is described as follows: FRET or BRET; type-1 BRET: GFP2- and Rluc-tagged copies of the receptor co-expressed in HEK293T cells, acceptor:donor ratio varied at constant expression; data fitted to monomer versus dimer models (R^2); read 24 hr (some 48 hr) post-transfection.
The target of assay [7] is leucine-rich repeat-containing receptor LGR4 (human) (UniProt Q9BXB1). The assay is described as follows: FRET or BRET; type-3 BRET: GFP2- and Rluc-tagged copies (12:1 pGFP2:pRluc) in HEK293T cells with untagged competitor or blank pU vector (2:1 pU:(pGFP2+pRluc)); p^diff tells whether BRETeff is affected by the competitor.
The target is the same in assay [8]. The assay is described as follows: FRET or BRET; type-1 BRET: GFP2- and Rluc-tagged copies of the receptor co-expressed in HEK293T cells, acceptor:donor ratio varied at constant expression; data fitted to monomer versus dimer models (R^2); read 24 hr (some 48 hr) post-transfection.
The target in assay [9] is α2C-adrenergic receptor (human) (UniProt P18825). The assay is described as follows: FRET or BRET; type-3 BRET: GFP2- and Rluc-tagged copies (12:1 pGFP2:pRluc) in HEK293T cells with untagged competitor or blank pU vector (2:1 pU:(pGFP2+pRluc)); p^diff tells whether BRETeff is affected by the competitor.
Assay [10] has the same target. The assay is described as follows: FRET or BRET; type-1 BRET: GFP2- and Rluc-tagged copies of the receptor co-expressed in HEK293T cells, acceptor:donor ratio varied at constant expression; data fitted to monomer versus dimer models (R^2); read 24 hr (some 48 hr) post-transfection.
Assay [11] has as its target α2CAR, C-terminal SNAP-tag and HaloTag fusions (human) (UniProt P18825). The assay is described as follows: single-molecule cross-color coincidence detection (SMCCCD); HaloTag (TMR) and SNAP-tag (505 Star) fusions co-expressed at low level in CHO K1 cells; fraction of HaloTag-labeled receptors within 300 nm of a SNAP-tag-labeled receptor, compared with CD86 and CD28.

Turning to “FZD5 (from UniProt Q13467 27-585) (receptor)”, the binding result in assay [1] and in assay [2] was “binds” each time.
Turning to “S1P receptor S1P2 (from UniProt O95136 1-353)”, the binding entry in assay [3] and in assay [4] was “binds” in each case.
On to “S1P receptor S1P5 (from UniProt Q9H228 1-398)”, for which the binding entry in [5] and in [6] was “binds” each time.
For “leucine-rich repeat-containing receptor LGR4 (from UniProt Q9BXB1 25-951)”, the binding result in assay [7] and in [8] was “binds” each time.
With “α2C-adrenergic receptor (from UniProt P18825 1-462)”, the binding entry in [9] and in assay [10] was “binds” throughout.
For the substance “α2CAR, C-terminal SNAP-tag and HaloTag fusions (from UniProt P18825 1-462) (receptor)”, the binding entry in assay [11] is “binds weakly”.
